Data published in PMC2639639, “Identification of Three Classes of Heteroaromatic Compounds with Activity against Intracellular Trypanosoma cruzi by Chemical Library Screening” (PLoS Neglected Tropical Diseases, 2009).

What was measured:
[1] = system: HepG2 cells; assay: Cytotoxicity assay (Alamar Blue) on HepG2 cells; assay type: cell-based, human
Experimental: (§1) Cells (NIH/3T3 or HepG2) were washed and plated at a density of 50,000 cells/well of 96-well plates in 200 µl and allowed to adhere for 3 h. Twenty-four hour assays were done in DMEM without phenol red supplemented with 10% FBS and Pen-Strep-Glut, while 4-day assays were done in the same medium containing 2% FBS. Drugs were added and mixed. After 1 or 4 days, 20 µl of Alamar Blue (Biosource, Invitrogen) was added. Plates were incubated for 4 h (HepG2) or 6 h (NIH/3T3) at 37°C and fluorescence was read using a Labsystems Fluoroskan II plate reader (excitation: 544 nm, emission: 590 nm) .
(§2) To determine TC50 values, fluorescence was plotted against inhibitor concentration. TC50 was determined as the concentration at which cytotoxicity (fluorescence) was half that in the absence of inhibitor.

[2] = system: NIH/3T3 cells; assay: Cytotoxicity assay (Alamar Blue) on NIH/3T3 cells; assay type: cell-based; conditions: TC50 NIH/3T3 4 days / IC50 intracellular growth
Experimental: as §1, §2

[3] = system: T. cruzi (Tulahuen strain) expressing β-galactosidase; assay: T. cruzi growth inhibition assay (β-gal activity, infection of NIH/3T3 cells); assay type: cell-based, Trypanosoma cruzi
Experimental: NIH/3T3 cells and parasites were harvested, washed once and resuspended in DMEM supplemented with 2% FBS and Pen-Strep-Glut. […] Different numbers of NIH/3T3 cells were seeded in 96-well plates. After 3 h, compounds were added at the indicated concentrations and mixed by pipetting. BZN tablets (Rochagan, Roche) dissolved in DMSO and 4 µM Amphotericin B solution (Sigma-Aldrich) were used as positive controls. Different numbers of T. cruzi parasites were added in a final volume of 200 µl/well. After 4 days, 50 µl of PBS containing 0.5% of the detergent NP40 and 100 µM Chlorophenol Red-β-D-galactoside (CPRG) (Fluka) were added. Plates were incubated at 37°C for 4 h and absorbance was read at 590 nm using a Tecan Spectra Mini plate reader.
To calculate the Z′ factor, we used the formula described by Zhang et al.: Z′ = 1−[(3σc++3σc−) / |μc+−μc−|] where σc+ = standard deviation (SD) of positive control, σc− = SD of negative control, μc+ = mean of positive control, μc− = mean of negative control. Subsequently, the best ratio was used for all growth inhibition assays (50.000 cells and parasites, multiplicity of infection (MOI) 1∶1).
To determine IC50 values, β-gal activity (Abs590) was plotted against compound concentration for each compound. The IC50 was determined as the concentration at which the activity (absorbance) was half that in the absence of compound. […]

Structure (SMILES)	Ratio of TC50 to IC50, HepG2 ([1]; 24 h (1 day))	Ratio of TC50 to IC50, HepG2 ([1]; 4 days) [fold]	Ratio of TC50 to IC50 (HepG2 cells at 24 h) ([1]; TC50 HepG2 24 h / IC50 intracellular growth)	Ratio of TC50 to IC50 (HepG2 cells at 4 days) ([1]; TC50 HepG2 4 days / IC50 intracellular growth)	Ratio of TC50 to IC50 (NIH/3T3 cells at 4 days) [2]	Increase in IC50 relative to PCH1 [3] [fold]
O=C(Cn1cnc([N+](=O)[O-])n1)Nc1cc(Oc2cccc(C(F)(F)F)c2)cc([N+](=O)[O-])c1 [NT1, 2-(3-nitro-1H-1,2,4-triazol-1-yl)-N-{3-nitro-5-[3-(trifluoromethyl)phenoxy]phenyl}acetamide]	more than 150 fold	40	^*160×	^*40×	^*74×	–
O=C(NN=Cc1ccc(-c2cccc(Cl)c2Cl)o1)c1cccnc1 [PCH2, N′-{[5-(2,3-dichlorophenyl)-2-furyl]methylene}nicotinohydrazide]	–	–	–	–	–	35
O=C(NN=Cc1ccc(-c2cccc(Cl)c2Cl)o1)c1ccncc1 [PCH3, N′-{[5-(2,3-dichlorophenyl)-2-furyl]methylene}isonicotinohydrazide]	–	–	–	–	–	> 200
